Experimental data taken from publication PMC7842900.

T1: GST-HpaB_(111-160) (Xanthomonas campestris pv. campestris) (UniProt B0RX82)
T1 sequence: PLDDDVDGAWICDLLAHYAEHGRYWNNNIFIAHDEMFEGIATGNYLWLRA

B1: 6×His-AvrAC (protein, UniProt Q4UWF4 1-536)
chain: MDKNLNLWDMSTFIQQYGALTADHPTHTPEDSPQTVPSPRSSSAHSPEIQELRSLQETRPARLGARSQSRSSKHGLQQCSSSPSDESFRLHAELAAWCERVETKPSLLAKLGCCAAPPVVGDHREQRREAMERIMRCLDAGQAGTQLTLRDLNLSQLPPGLHRLAHLRDLDVADNVNLTRLPEDLSLCKHLERINADGCSIAALPSKIGALKNLSEISLAFNELRTLPDSIGQCSSLTTIVVPGCKINKLPASLANLTQLKKLDVAANIELSELSPHMNLDDVAVHSTQTRLGLMHRIFKAPTFDPETRQRLSYQASALRDRWAALSHHLSPQARARVDQMREGASTTLSSQDHKASTAWKTATEKVSSWAEEGAPITLDRIFKLNQLLLPEGDDDNDPIGGQLRKVGIQAAPSNTWTECRYPPPETLKDEMAKFSGWLEHSEQQAHARDALGHIEFAAQLHQRLVSLHPFDDANGRTARLAMDWALQRHGLPPAPPVGEASRLPASFLGGKRVSPEKVVLETLEGIATVMNQVHQ

What was measured:
[1] = molecular target: T1, GST-HpaB_(111-160) (Xanthomonas campestris pv. campestris); assay: pull-down; chaperone release assay: GST-fused HpaB derivatives immobilised on MagneGST particles, incubated with 6×His-tagged T3E to form the complex, unbound protein removed; then 1 h at room temperature with 150 μM ATP, with or without 1 μg purified 6×His-HrcN; supernatant and particles immunoblotted
[2] = molecular target: GST-HpaB_(1-136) (Xanthomonas campestris pv. campestris); assay: as above

Molecule	binding [1]	binding [2]
6×His-XC3176 (Xanthomonas campestris pv. campestris)	binds	
B1		binds

No constants are given. Whether binding was seen depends on the method and setting. Binding seen in cells or lysates may run through a third protein. A result given as binding can be weak or reduced; the word gives no strength. Sequences can lack the tags named with a protein.
